Experimental data: article PMC11525188
Results are given in words; binding and its absence hold for the method and conditions named. For some assays here: Binding seen in cells or lysates may run through a third protein. Some results given as binding are weak or reduced against the parent protein; the word gives no strength.

Chains of the proteins cited; added tags and fusions are not shown.
UniProt P10275: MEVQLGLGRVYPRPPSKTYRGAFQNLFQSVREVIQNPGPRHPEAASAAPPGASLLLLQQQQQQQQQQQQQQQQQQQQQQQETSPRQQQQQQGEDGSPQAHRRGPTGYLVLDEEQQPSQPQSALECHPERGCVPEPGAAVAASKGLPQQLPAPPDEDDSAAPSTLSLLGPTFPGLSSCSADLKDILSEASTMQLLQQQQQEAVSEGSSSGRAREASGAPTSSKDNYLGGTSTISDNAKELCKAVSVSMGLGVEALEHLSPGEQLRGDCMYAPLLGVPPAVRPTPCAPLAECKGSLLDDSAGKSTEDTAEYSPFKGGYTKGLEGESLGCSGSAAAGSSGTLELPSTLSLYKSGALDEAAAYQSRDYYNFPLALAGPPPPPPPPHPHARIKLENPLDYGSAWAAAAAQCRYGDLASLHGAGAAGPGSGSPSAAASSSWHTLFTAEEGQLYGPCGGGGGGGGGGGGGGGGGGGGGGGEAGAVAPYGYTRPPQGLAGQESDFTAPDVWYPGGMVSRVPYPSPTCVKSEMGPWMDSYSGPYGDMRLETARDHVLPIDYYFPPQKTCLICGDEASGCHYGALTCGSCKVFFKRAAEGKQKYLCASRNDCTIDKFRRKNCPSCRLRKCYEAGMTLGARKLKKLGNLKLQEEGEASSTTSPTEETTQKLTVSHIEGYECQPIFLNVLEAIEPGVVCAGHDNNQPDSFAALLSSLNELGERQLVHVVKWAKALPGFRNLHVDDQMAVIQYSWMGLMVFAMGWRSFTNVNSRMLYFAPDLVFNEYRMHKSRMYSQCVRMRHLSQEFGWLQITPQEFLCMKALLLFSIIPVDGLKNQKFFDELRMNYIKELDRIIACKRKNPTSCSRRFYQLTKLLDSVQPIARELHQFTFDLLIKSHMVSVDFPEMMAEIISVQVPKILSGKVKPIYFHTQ
UniProt O96028: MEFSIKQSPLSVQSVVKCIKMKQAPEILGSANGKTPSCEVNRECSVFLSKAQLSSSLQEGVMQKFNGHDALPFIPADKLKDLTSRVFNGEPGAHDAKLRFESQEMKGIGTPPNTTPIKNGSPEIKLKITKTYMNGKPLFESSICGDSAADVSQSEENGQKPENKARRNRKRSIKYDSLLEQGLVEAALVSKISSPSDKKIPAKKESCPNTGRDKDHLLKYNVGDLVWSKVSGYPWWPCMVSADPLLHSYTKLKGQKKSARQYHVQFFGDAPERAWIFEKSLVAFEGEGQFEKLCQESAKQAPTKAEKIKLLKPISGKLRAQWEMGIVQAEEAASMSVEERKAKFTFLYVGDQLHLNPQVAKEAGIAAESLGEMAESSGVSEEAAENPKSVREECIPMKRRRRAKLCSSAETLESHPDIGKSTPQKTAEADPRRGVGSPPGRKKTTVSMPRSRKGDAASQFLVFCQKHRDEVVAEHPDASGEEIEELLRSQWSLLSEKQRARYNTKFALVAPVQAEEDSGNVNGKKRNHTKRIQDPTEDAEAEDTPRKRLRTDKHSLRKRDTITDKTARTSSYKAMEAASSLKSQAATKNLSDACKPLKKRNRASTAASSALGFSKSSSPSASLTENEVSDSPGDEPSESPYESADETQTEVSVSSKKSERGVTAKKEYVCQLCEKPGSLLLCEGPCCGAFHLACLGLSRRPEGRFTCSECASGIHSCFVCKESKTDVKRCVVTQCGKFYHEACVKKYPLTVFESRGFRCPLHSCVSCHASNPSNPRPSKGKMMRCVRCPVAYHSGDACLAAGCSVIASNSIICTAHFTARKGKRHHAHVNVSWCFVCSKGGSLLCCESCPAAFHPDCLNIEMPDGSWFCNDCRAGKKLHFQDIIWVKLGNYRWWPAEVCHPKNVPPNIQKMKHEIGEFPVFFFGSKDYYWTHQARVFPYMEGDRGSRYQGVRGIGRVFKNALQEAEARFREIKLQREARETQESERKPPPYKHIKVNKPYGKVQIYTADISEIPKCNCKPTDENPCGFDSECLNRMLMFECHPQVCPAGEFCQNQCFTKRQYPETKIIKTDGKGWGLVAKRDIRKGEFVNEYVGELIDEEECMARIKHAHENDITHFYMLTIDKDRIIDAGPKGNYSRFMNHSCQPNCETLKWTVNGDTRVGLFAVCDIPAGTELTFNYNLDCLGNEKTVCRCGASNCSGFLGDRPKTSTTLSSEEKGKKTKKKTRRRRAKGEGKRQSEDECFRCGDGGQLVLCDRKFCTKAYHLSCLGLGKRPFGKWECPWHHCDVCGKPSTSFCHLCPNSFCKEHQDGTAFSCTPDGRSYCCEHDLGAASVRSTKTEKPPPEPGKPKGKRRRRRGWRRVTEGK

Key:
[1] = target: Androgen receptor (human (endogenous in prostate cancer cell lines)) (UniProt P10275); test: co-IP; coimmunoprecipitation of endogenous AR in prostate cancer cells, immunoblot
[2] = target: Androgen receptor (human (endogenous in prostate cancer cell lines)) (UniProt P10275); test: SEC; size-exclusion chromatography fractions of nuclear lysate from wild-type LNCaP cells, immunoblotted

binding [1]: binds
binding [2]: binds
Substance: nuclear receptor binding SET domain protein 2 (from UniProt O96028 1-1365)
